Results on one substance are retold here after paper PMC5813027.

For the test, the target named is T1, endogenous CCDC28B (human (endogenous in Hek293)) (UniProt Q9BUN5).
T1 sequence: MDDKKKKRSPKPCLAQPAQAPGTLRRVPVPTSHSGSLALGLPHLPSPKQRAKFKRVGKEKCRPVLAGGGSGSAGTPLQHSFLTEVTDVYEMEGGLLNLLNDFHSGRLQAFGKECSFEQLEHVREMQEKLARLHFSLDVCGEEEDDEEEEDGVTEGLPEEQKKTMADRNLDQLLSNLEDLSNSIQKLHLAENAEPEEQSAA
The test can be described thus: co-IP; non-transfected cells; endogenous CCDC28B precipitated with biotinylated anti-CCDC28B VHH on Streptavidin-Agarose; western blots for KIF5B, KLC1, α-tubulin and CCDC28B. On the technique in general: In western blotting, separated proteins are transferred to a membrane and probed.

Results are given in words; binding and its absence hold for the method and conditions named. In cells and extracts the contact can be indirect. Binding calls can cover weak binding; strength is not graded here.

Consider “α/β-tubulin (human (endogenous in Hek293)) (complex)”, for which the binding result is “binds”.
